Measurements: paper PMC6255761
These are yes or no findings as the source states them, for the method shown. In cells and extracts the contact can be indirect. Some binding calls cover weakened binding; strength is not graded here. Tags and fused reporters may be left off the sequences shown.

By UniProt entry, the sequences of proteins in these tests, tags left out.
UniProt Q6IAA8: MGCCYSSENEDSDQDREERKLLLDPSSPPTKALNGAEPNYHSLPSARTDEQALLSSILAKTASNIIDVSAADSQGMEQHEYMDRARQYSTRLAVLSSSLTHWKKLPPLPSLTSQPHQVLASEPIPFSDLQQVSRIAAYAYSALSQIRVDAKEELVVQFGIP
UniProt Q9Y2Q5: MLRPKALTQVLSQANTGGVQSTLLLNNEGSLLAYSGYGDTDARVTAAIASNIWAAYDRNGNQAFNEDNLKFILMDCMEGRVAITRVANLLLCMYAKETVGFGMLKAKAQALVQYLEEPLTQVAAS
UniProt Q9UHA4: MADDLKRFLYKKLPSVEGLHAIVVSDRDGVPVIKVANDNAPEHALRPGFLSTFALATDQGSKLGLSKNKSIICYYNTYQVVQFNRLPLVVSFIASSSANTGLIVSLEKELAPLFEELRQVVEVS

Assays:
[1] = molecular target: T1, GST-Arl5b-QL (UniProt Q96KC2); assay: pull-down; bead-immobilized GST-Arl5b-TN or -QL incubated with HEK293T lysates expressing individual GFP- or Myc-tagged Lamtor constructs; blots against the tags; only the target purified
T1 sequence: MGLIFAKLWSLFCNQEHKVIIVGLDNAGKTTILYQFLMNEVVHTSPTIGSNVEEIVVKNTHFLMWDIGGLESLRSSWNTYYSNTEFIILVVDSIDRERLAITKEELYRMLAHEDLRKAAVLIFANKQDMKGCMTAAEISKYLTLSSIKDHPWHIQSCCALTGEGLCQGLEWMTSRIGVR

[2] = molecular target: Lamtor1-Myc (UniProt Q6IAA8); assay: co-IP; forward and reverse co-IPs from HEK293T lysates co-expressing C-terminally GFP-tagged and Myc-tagged proteins; blots against the tags

Q: How did the binding [1] turn out when “Myc-tagged Lamtor2 (from UniProt Q9Y2Q5 1-125)” was run?
A: Its binding is “no binding”.

Q: Which binding [1] does the source give for “Myc-tagged Lamtor3 (from UniProt Q9UHA4 1-124)” here?
A: The binding was “no binding”.

B1: Arl5b-QL-GFP (protein, UniProt Q96KC2 1-179)
chain: MGLIFAKLWSLFCNQEHKVIIVGLDNAGKTTILYQFLMNEVVHTSPTIGSNVEEIVVKNTHFLMWDIGGLESLRSSWNTYYSNTEFIILVVDSIDRERLAITKEELYRMLAHEDLRKAAVLIFANKQDMKGCMTAAEISKYLTLSSIKDHPWHIQSCCALTGEGLCQGLEWMTSRIGVR
Q: How did the binding [2] turn out when B1 was run?
A: The binding was “binds”.

B2: Arl5b-TN-GFP (protein, UniProt Q96KC2 1-179)
chain: MGLIFAKLWSLFCNQEHKVIIVGLDNAGKNTILYQFLMNEVVHTSPTIGSNVEEIVVKNTHFLMWDIGGQESLRSSWNTYYSNTEFIILVVDSIDRERLAITKEELYRMLAHEDLRKAAVLIFANKQDMKGCMTAAEISKYLTLSSIKDHPWHIQSCCALTGEGLCQGLEWMTSRIGVR
Q: B2 was tested. Which binding [2] did it give?
A: Its binding is “binds”.
